Here are results for five compounds from the supplement of paper PMC4604168 (melanoma cell lines).

Each structure is given as a SMILES string. Some of the results follow. Single values are uncertain, as repeats are few or missing.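 Imaging used 1,536-well plates; nuclei positive for cleaved PARP by antibody were divided by total DNA-stained nuclei to yield the apoptosis fraction. Doses for screening kept most cells viable, and cell lines differ markedly in resting and induced cleaved-PARP levels.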

The test system of this assay is UACC62. As to the kind of experiment: cleaved PARP positive nuclei fraction relative to DMSO control; melanoma cells; higher = more apoptosis. As to conditions: library dose: low library concentration; 72 h.
`CC1(C)CCC(c2ccc(Cl)cc2)=C(CN2CCN(c3ccc(C(=O)NS(=O)(=O)c4ccc(N[C@H](CCN5CCOCC5)CSc5ccccc5)c(S(=O)(=O)C(F)(F)F)c4)cc3)CC2)C1` + CCN(CC)CCCCNc1ncc2cc(-c3cc(OC)cc(OC)c3)c(NC(=O)NC(C)(C)C)nc2n1 [PD173074] (first compound 0.4 µM, partner dose 0.1 µM): the “cleaved PARP positive nuclei fraction” value is 117%.

`C[C@]1(O)C[C@@H](c2nc(-c3ccc4ccc(-c5ccccc5)nc4c3)c3c(N)nccn32)C1` + COc1cc2ncnc(Nc3ccc(Oc4ccccc4)cc3)c2cc1OC [SrcI1] (first compound 0.4 µM, partner dose 2 µM): the “cleaved PARP positive nuclei fraction” value turned out to be 103%.

For `CC1(C)CCC(c2ccc(Cl)cc2)=C(CN2CCN(c3ccc(C(=O)NS(=O)(=O)c4ccc(N[C@H](CCN5CCOCC5)CSc5ccccc5)c(S(=O)(=O)C(F)(F)F)c4)cc3)CC2)C1` + CCc1ccc(CCOc2ccc(CC3SC(=O)NC3=O)cc2)nc1 [pioglitazone] (first compound 0.4 µM, partner dose 2 µM), the “cleaved PARP positive nuclei fraction” value was found to be 95.2%.

Consider `C[C@@H](N)c1ccc(C(=O)Nc2ccnc3[nH]ccc23)cc1` + CCN(CC)CCCCNc1ncc2cc(-c3cc(OC)cc(OC)c3)c(NC(=O)NC(C)(C)C)nc2n1 [PD173074] (first compound 0.4 µM, partner dose 0.1 µM), for which the “cleaved PARP positive nuclei fraction” value was 66.2%.

Consider `CCN(CC)CCNC(=O)c1c(C)[nH]c(/C=C2\C(=O)Nc3ccc(F)cc32)c1C` [sunitinib] + Cc1cc(N2CCOCC2)cc2[nH]c(-c3c(NC[C@@H](O)c4cccc(Cl)c4)cc[nH]c3=O)nc12 [BMS536924] (first compound 0.4 µM, partner dose 0.2 µM), for which the “cleaved PARP positive nuclei fraction” value was 141%.
